Experimental data taken from patent US11666562B2, “Ilaprazole for inhibiting the release of enveloped viruses from cells” (Northwestern University, priority 2020, dated 2023).
For at least one compound, name, drawing or mass did not settle the structure.

Experiments:
[1] = biological target: T1, Tsg101-UEV (Tsg101 amino acids 1-145) (Homo sapiens, UniProt Q99816); experiment: Fluorescence thermal shift (FTS) assay, binding to Tsg101-UEV; settings: Sypro-Orange, no DTT
T1 construct: The recombinant Tsg101 fragment (amino acids 1-145), prepared as described above in Materials and Methods; His6 (N); thrombin protease cleavage site (N); made in house; host or cells: E. coli ROSETTA 2 (DE3) pLysS
T1 sequence (Q99816 1-145): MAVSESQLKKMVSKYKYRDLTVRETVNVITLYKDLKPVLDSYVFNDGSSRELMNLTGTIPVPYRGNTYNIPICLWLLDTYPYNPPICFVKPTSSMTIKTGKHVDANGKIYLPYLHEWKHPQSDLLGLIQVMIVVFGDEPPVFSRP
Description: The fluorescence-based thermal shift assay is based on the observation that a protein unfolds upon heating, exposing the hydrophobic residues within its tertiary structure. The unfolding temperature (Tm) is determined by the protein's primary sequence and solution environment. The FTS assay uses a fluorescent dye sensitive to a hydrophobic environment to probe protein stability and its modulation by small molecule ligands. The dye has a low fluorescence quantum yield when in a polar environment. […]
Identification of prazole compounds that bind the UEV ubiquitin-binding domain of Tsg101. We screened chemical compounds using a fluorescence thermal shift (FTS) assay (27, 28) to identify small molecules that bind directly to a truncated form of Tsg101 (amino acids 1-145) which contains the Ubiquitin E2 variant (UEV) ubiquitin-binding domain (FIG. 1). […] Tsg101 is an adaptor protein and thus lacks a readily deployable functional assay, making FTS a tractable approach to identify interacting compounds. […] Since ligand binding affects protein thermal stability, it can be detected through modulation of protein thermal denaturation (melting) as a shift in melting temperature (Tm). […]
Purification of Tsg101 (1-145). […] Protein concentration was determined with a Nano Drop Spectrophotometer at […]. […]

HSV-2 = experiment: Release of HSV-2 from infected Vero cells, plaque assay; type: cell-based, Herpes simplex virus-2(A/B-G); settings: Table 2, 24 h
Description: We infected Vero cells with HSV-1 and HSV-2 for two hours at a multiplicity of infection (MOI in pfu\cell) of 0.1 to assay the antiviral activity of tenatoprazole. Following infection, cells were treated with different concentrations of tenatoprazole. After 24 or 48 h the media fractions were collected and released virus titers were determined by standard plaque assays (30). Tenatoprazole caused a 3-log drop of HSV-1 and 4-5 log drop of HSV-2 in released infectious virus from Vero cells at 24 hours after infection in a dose dependent manner (Table 1, shown in FIG. 5, columns 2 and 3) with calculated EC50's ranging from 48-80 μM. Total virus titer was also determined to differentiate between virus released into the media and infectious particles present in cell lysate. […] The concentrations of tenatoprazole that blocked virus release were nontoxic to Vero cells as determined by a 96® AQueous One Solution cell proliferation assay reagent (Table 1, shown in FIG. 5, column 7). […]
Herpesvirus infection of Vero cells. […] Virus titer in the cell media fraction was determined by standard plaque assays using 10-fold serial dilutions of cell supernatants of Vero cells and incubated for 48 h after which cells were fixed and stained to count the plaques (22). […] Virus titer was measured by standard plaque assay as above. […]

| Compound | Tm (melting temperature) shift of Tsg101-UEV [1] | Anti-HSV-2 activity (release from Vero cells), in words (HSV-2) |
| --- | --- | --- |
| COc1ccnc(C[S+]([O-])c2nc3ccc(OC(F)F)cc3[nH]2)c1OC (centres unmarked) [pantoprazole] | smallest thermal shift | – |
| COc1ccc2[nH]c([S+]([O-])Cc3ncc(C)c(OC)c3C)nc2c1 (centres unmarked) [omeprazole] | – | weak antiviral activity |
